Measured values as given in patent US10202345B2, “Substituted azaspiro(4.5)decane derivatives” (priority 2014, dated 2019).
Structures were worked out from names or drawings and are uncertain.

Amino acid sequences for entries named in this document (tags omitted).
UniProt P41146, whole entry: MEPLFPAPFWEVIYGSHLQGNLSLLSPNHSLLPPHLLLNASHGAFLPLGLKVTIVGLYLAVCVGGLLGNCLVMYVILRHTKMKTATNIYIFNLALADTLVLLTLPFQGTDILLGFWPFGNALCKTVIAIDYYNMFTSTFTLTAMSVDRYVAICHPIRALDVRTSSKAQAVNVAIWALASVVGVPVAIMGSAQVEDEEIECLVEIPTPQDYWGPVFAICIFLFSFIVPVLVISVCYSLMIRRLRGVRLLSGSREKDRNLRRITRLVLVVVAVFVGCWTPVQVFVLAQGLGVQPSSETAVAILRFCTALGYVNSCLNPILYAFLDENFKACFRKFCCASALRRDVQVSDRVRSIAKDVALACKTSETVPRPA
UniProt P35372, whole entry: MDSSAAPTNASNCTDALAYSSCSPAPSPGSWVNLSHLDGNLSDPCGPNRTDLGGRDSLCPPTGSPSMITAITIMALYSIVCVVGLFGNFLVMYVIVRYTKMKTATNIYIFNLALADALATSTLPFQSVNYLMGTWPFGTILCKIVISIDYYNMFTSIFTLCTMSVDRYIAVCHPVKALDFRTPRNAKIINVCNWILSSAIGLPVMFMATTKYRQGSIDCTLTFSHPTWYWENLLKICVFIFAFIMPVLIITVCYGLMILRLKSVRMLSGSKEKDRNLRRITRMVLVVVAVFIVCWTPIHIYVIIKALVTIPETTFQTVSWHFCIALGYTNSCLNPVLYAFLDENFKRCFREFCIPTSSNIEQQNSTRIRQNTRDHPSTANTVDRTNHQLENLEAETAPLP

Columns and labels:
rats = experiment: Analgesia in the tail flick (focal ray) test in rats, intravenous administration
ORL1 receptor = ORL1 receptor (Homo sapiens, UniProt P41146); experiment: ORL1 receptor binding assay with 3H-nociceptin/orphanin FQ (WGA-SPA beads); conditions: for Ki: read-out: Ki (ORL1) mean, mean; for % inhibition (ORL1) [1 μM]: test concentration 1 μM
human μ opiate receptor = human μ opiate receptor (Homo sapiens, UniProt P35372); experiment: μ opiate receptor binding assay with [3H]-naloxone (WGA-SPA beads); conditions: for Ki: read-out: Ki (μ) mean [μm], mean; for % inhibition (μ) [1 μM]: test concentration 1 μM

| Structure (SMILES) | Tail flick rat, i.v. ED50 rat [μg/kg] (rats) | Ki (ORL1 receptor) | % inhibition (ORL1) [1 μM] (ORL1 receptor) | Ki (human μ opiate receptor) | % inhibition (μ) [1 μM] (human μ opiate receptor) |
| --- | --- | --- | --- | --- | --- |
| CN(C)C1(c2ccccc2)CCC2(CC1)CC(=O)N(CCC1CCCO1)C2 (stereo not drawn) | 6.6 µg/kg | – | – | – | – |
| CN(C)C1(c2cccs2)CCC2(CC1)CNC(=O)C2 (single isomer, unassigned) [23] | – | 0.068 µM | 58% | 0.05 µM | 84.5% |
| Cc1ccc(C2(N(C)C)CCC3(CC2)CC(=O)N(CC2CCCC2)C3)s1 (single isomer, unassigned) [159] | – | 0.0915 µM | 31.5% | 0.185 µM | 32.5% |
